Results deposited as PubChem BioAssay AID1259308 (NCATS, 2017)
This is an unselected part of about 59,000 reagents tested. In the full data, about 1,510 (2.6%) are marked active. 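Calls use total luciferase alone and ignore viability, so some active siRNAs may act by altering cell number.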 Not all columns of the deposit are shown.

Assay: 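Candidate targets for better recombinant protein yield in mammalian cells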 (primary screen)
Cell system: human HEK293 embryonic kidney cells stably expressing firefly luciferase (HEK-CMV-Luc2-Hygro)
Reagent: single siRNA against human genes, 0.8 pmol siRNA per well
Time to read-out: 72 h
Measured: 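Reporter luminescence and viable-cell signal on separate replicate plates, given as percent of non-targeting control and median/MAD z-scores, plus per-cell luciferase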
Reading the numbers: total luciferase, z-score: higher = more reporter protein produced
Call rule: 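An siRNA counts as active if its total luciferase robust z-score exceeds 3; genes with two or more such siRNAs out of three were retested with fresh siRNAs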
Calls: active = raised luciferase; inactive = no rise

total luciferase, z-score, by gene knocked down and reagent
ZC3HAV1: SID160745168 -1.63 inactive; SID160745169 1.28 inactive; SID160745170 -0.64 inactive
DDX49: SID160741920 -0.499 inactive; SID160741921 -0.885 inactive; SID160741924 0.137 inactive
LOC727751: SID160726442 -0.782 inactive; SID160734223 0.362 inactive; SID160771153 -0.431 inactive
HSPH1: SID160729275 0.147 inactive; SID160729276 1.1 inactive; SID160729277 -0.134 inactive
TSC22D3: SID160756754 -0.0465 inactive; SID160756763 1.92 inactive; SID160756772 0.152 inactive
THUMPD2: SID160750516 -0.231 inactive; SID160750517 -0.432 inactive; SID160750518 -0.693 inactive
SRFBP1: SID160759332 -0.747 inactive; SID160759333 -1.99 inactive; SID160759334 -1.27 inactive
TFIP11: SID160736910 1.45 inactive; SID160736911 -1.51 inactive; SID160736912 0.044 inactive

Entries above whose target name begins with D or d:
total luciferase, z-score, by gene knocked down and reagent
DDX49: SID160741920 -0.499 inactive; SID160741921 -0.885 inactive; SID160741924 0.137 inactive
